# Screen size: about 320,000 compounds; about 22,000 (6.9%) were called active. This list was built around the results that the source calls inconclusive (neither active nor inactive); the mix of calls is not that of the screen. The call rests on the fitted dose curve; in most records, active means well fitted inhibition curve with a large enough effect; inconclusive means small, poorly fitted or top-dose-only effect, or another doubt; inactive means no such curve, though single readings can be large or run the other way. Potencies of inconclusive entries are doubtful fits and often do not repeat.
# Assay: Primary qHTS for delayed death inhibitors of the malarial parasite plastid, 96 hour incubation
# Details: P. falciparum luciferase reporter growth; series mostly up to 28.7 µM
# How it was run: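 Erythrocytes infected with luciferase-expressing P. falciparum were dispensed at 2% hematocrit and 0.05% parasitemia (final), then incubated with compounds 96 hours at 37 C in 5% CO2. Luminescence after detection reagent addition reported growth.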
# Potency means the concentration at half of the fitted maximal effect.
row,Structure (SMILES),Potency
1,COc1ccc(-c2[nH]c3ccccc3c2SCCN)cc1,"inconclusive: 18.5 µM [inhibitor, single point]"
2,CCCNc1nc(C)cc(-c2cc(C(=O)NCc3ccccc3)on2)n1,"inconclusive: 10.4 µM [inhibitor, single point]"
3,N#CCN1CCC2(O)CCCCC2C1c1ccc2c(c1)OCO2 (stereo unspecified),inactive
4,COc1ccccc1N1CCN(c2nc(C)cc(C)c2C#N)CC1,active: 8.28 µM
5,CCN(CC)S(=O)(=O)c1ccc(OC)c(NC(=O)C2CC(=O)N(c3ccc4c(c3)OCCO4)C2)c1 (stereo unspecified),"inconclusive: 9.28 µM [inhibitor, partial curve, poor fit]"
6,Cc1ccc(NC(=O)CSc2nc3ccccc3c(=O)n2CCCC(=O)NCCCN2CCOCC2)cc1C,active: 13.1 µM
7,c1ccc(Cn2c(NCc3ccccn3)nc3ccccc32)cc1,"inconclusive: 18.5 µM [inhibitor, single point]"
8,O=C(COc1cc2oc(=O)c3c(c2cc1Cl)CCC3)NCc1ccncc1,"inconclusive: 11.7 µM [inhibitor, single point]"
9,CCn1c2ccccc2c2cc(NC(C)=O)ccc21,inactive
10,O=C1C=C(c2ccnc3cc(Cl)ccc23)C[C@@H](c2ccc3c(c2)OCO3)C1,"inconclusive: 4.65 µM [inhibitor, partial curve, poor fit]"
11,O=C(CC(=O)c1c(F)cccc1Cl)c1ccccc1O,"inconclusive: 13.1 µM [inhibitor, partial curve]"
12,O=S(=O)(Nc1cccc(-c2cn3cccnc3n2)c1)c1ccc(Cl)cc1,inactive
13,CCOC(=O)CNC(=O)COc1ccc(Cl)cc1Br,active: 10.4 µM
14,COC(=O)C1=C(C)N(C)C(=O)NC1c1ccccc1 (stereo unspecified),inactive
15,COc1cccc(C(=O)Nc2ccc3[nH]ncc3c2)c1,"inconclusive: 5.22 µM [inhibitor, partial curve]"
16,CC(=O)c1ccc(C(=O)NC2CC(C)(C)Cc3c2cnn3-c2ccccc2)cc1 (stereo unspecified),"inconclusive: 18.5 µM [inhibitor, single point]"
17,CCOc1ccc(NC(=O)c2cccc(OC(=S)N3CCC(C)CC3)c2)cc1,active: 11.7 µM
18,O=C(NCC1COc2ccccc2O1)C1C2C=CC3(CN(Cc4ccccc4Cl)C(=O)C13)O2 (stereo unspecified),"inconclusive: 7.38 µM [inhibitor, partial curve, poor fit]"
19,Nc1ncnc(SCc2c(F)cccc2Cl)n1,inactive
20,Cc1ccc(N(Cc2ccccc2)C(=O)c2cccc(S(=O)(=O)N3CCOCC3)c2)cc1,active: 10.4 µM
21,CN(CCNC(=O)C1(O)c2ccccc2NC(=O)N1c1ccccc1)Cc1ccccc1 (stereo unspecified),"inconclusive: 3.7 µM [inhibitor, full curve]"
22,O=C(C1=C[C@@H](c2ccc(C(F)(F)F)cc2)C[C@@H](OCCCCO)O1)N1CCN(Cc2ccc3c(c2)OCO3)CC1,active: 9.28 µM
23,CC(=O)c1ccc(OCc2cc(C(=O)N(C)Cc3ccccn3)no2)cc1,active: 10.4 µM
24,CCOC(=O)c1[nH]cnc1C(=O)NC1CCN(C(=O)OC(C)(C)C)CC1,"inconclusive: 3.29 µM [inhibitor, single point]"
25,Cc1ccc(C)c(NC(=O)CN(C)C(=O)c2ccccc2OCc2ccccc2Cl)c1,"inconclusive: 18.5 µM [inhibitor, single point]"
26,COc1ccc(S(=O)(=O)N(C)CC(=O)Nc2ccccc2SC)cc1Cl,inactive

# Entries shown so far containing fluorine, in the order listed:
row,Structure (SMILES),Potency
11,O=C(CC(=O)c1c(F)cccc1Cl)c1ccccc1O,"inconclusive: 13.1 µM [inhibitor, partial curve]"
19,Nc1ncnc(SCc2c(F)cccc2Cl)n1,inactive
22,O=C(C1=C[C@@H](c2ccc(C(F)(F)F)cc2)C[C@@H](OCCCCO)O1)N1CCN(Cc2ccc3c(c2)OCO3)CC1,active: 9.28 µM

# Next entries

row,Structure (SMILES),Potency
1,CC1CCN(CC(=O)Nc2ccc(S(=O)(=O)N3CCCCC3)cc2)CC1,"inconclusive: 14.7 µM [inhibitor, partial curve, poor fit]"
2,N#Cc1c(-c2ccccc2)nc(SCC(=O)Nc2ccccc2)[nH]c1=O,inactive
3,CCCn1c(C)cc(C(=O)COC(=O)CN=C2NS(=O)(=O)c3ccccc32)c1C,inactive
4,COC(=O)c1ccc(CSC2=NCCS2)cc1,inactive
5,O=C(Nc1nc2c(F)cc(F)cc2s1)c1ccccn1,"inconclusive: 2.94 µM [inhibitor, full curve, poor fit]"
6,COc1ccc(NC(=O)CN2CCN(CC#N)CC2)cc1,inactive
7,Cc1ccc2nc3c(c(C(=O)OC4CCOC4=O)c2c1)CCCC3 (stereo unspecified),"inconclusive: 7.38 µM [inhibitor, partial curve]"
8,COC(=O)[C@@]12CCCCN1[C@H](c1ccc(-c3ccccc3)cc1)[C@H]1C(=O)N(C)C(=O)[C@H]12,inactive
9,CCOc1cc2c(cc1OCC)CN(CC(=O)Nc1ccccc1C(=O)NC1CC1)CC2,"inconclusive: 11.7 µM [inhibitor, partial curve]"
10,CC(C)c1ccccc1NC(=O)C1C2C=CC(C2)C1C(=O)O (stereo unspecified),"inconclusive: 0.465 µM [inhibitor, full curve, poor fit]"
11,C[C@@H](NC(=O)c1[nH]cnc1C(=O)Nc1ccon1)c1ccccc1,"inconclusive: 3.7 µM [inhibitor, single point]"
12,CCOC(=O)c1ccc(N=c2sc(C(=O)OC)cc(=O)n2Cc2ccc3c(c2)OCO3)cc1,"inconclusive: 7.38 µM [inhibitor, partial curve, poor fit]"
13,O=C(NCCCc1ccccc1)c1cncc(Br)c1,inactive
14,N#Cc1c(-c2ccccc2)nc2n(c1=O)CCS2,inactive
15,C=CCc1ccc(OCCCNCc2ccccc2)c(OC)c1,"inconclusive: 11.7 µM [inhibitor, single point]"
16,CC(C)C1Oc2ccccc2N(CC(=O)N2CCOCC2)C1=O (stereo unspecified),inactive
17,CCOc1ccc(C(=O)NNC2CC(=O)N(Cc3ccc(Cl)cc3)C2=O)cc1OC (stereo unspecified),inactive
18,COc1ccc(C2=NNC(c3cccnc3)=Nc3ccc(OC)cc32)cc1,inactive
19,CCCCCCCn1c(=N)n(CC(O)c2ccco2)c2ccccc21 (stereo unspecified),"inconclusive: 18.5 µM [inhibitor, single point]"
20,N#C/C(=C(O)\C=C\c1ccccc1)c1nc2ccccc2[nH]1,inactive
21,Cc1ccc(N(C(=O)CNC(=O)c2ccco2)C(C(=O)NCC2CCCO2)c2ccccc2)cc1C (stereo unspecified),inactive
22,COc1ccc(C(=O)c2cnc3ccccc3c2-c2ccccc2)cc1,"inconclusive: 4.15 µM [inhibitor, single point]"
23,O=[N+]([O-])c1cccc(S(=O)(=O)NCCNS(=O)(=O)c2cccc([N+](=O)[O-])c2)c1,"inconclusive: 19 µM [inhibitor, single point]"
24,CC1CC(C)CN(C(=O)CSc2ccsc2[N+](=O)[O-])C1 (stereo unspecified),"inconclusive: 18.5 µM [inhibitor, single point]"
25,CC(/C=C/c1ccccc1)=N\NC(=O)Cn1cncn1,inactive
26,CCC(c1nnnn1CC1CCCO1)N(CCCO)Cc1cc2cccc(C)c2[nH]c1=O (stereo unspecified),"inconclusive: 4.15 µM [inhibitor, partial curve, poor fit]"

# Copied from the list.
# Cc1ccc(N(C(=O)CNC(=O)c2ccco2)C(C(=O)NCC2CCCO2)c2ccccc2)cc1C (stereo unspecified) | Potency: inactive
# O=C(NCCCc1ccccc1)c1cncc(Br)c1 | Potency: inactive

# Following part:

row,Structure (SMILES),Potency
1,CCN=c1scc(C)n1/N=C/c1ccc(O)c(O)c1O,active: 7.38 µM
2,N#C/C(=C(/O)COC(=O)CSc1ccc2ccccc2c1)c1nc2ccccc2[nH]1,inactive
3,CSc1nnc(C)c(/C=C/Nc2ccc(F)cc2)n1,"inconclusive: 0.928 µM [inhibitor, full curve, poor fit]"
4,Cc1cccc(NC(=O)c2nc[nH]c2C(=O)NCCCCCNC(=O)OC(C)(C)C)c1,"inconclusive: 8.28 µM [inhibitor, partial curve, poor fit]"
5,O=C(COC(=O)CCc1c[nH]c2ccccc12)NCc1ccc2c(c1)OCO2,inactive
6,Cc1nc2sc3c(c2c(=O)o1)CCC3,"inconclusive: 10.4 µM [inhibitor, single point]"
7,COc1ccc(C(=O)COC(=O)CCCn2c(=O)oc3ccccc32)cc1,inactive
8,Cc1ccc(NC(=O)c2ccccc2O)cc1,inactive
9,CC1CCCC(NC(=O)NC(=O)COC(=O)C2=NN(c3ccccc3)C(=O)CC2)C1C (stereo unspecified),"inconclusive: 18.5 µM [inhibitor, single point]"
10,Cc1cccc(OCC(=O)NC2CCCCCC2)c1C,"inconclusive: 18.5 µM [inhibitor, single point]"
11,O=C(CN1C(=O)NC2(CCCC2)C1=O)OCCOc1ccccc1Cl,inactive
12,COc1cc(/C=N/n2cnnc2)ccc1OC(=O)c1ccncc1,"inconclusive: 18.5 µM [inhibitor, single point]"
13,Cc1nn(Cc2ccc(Cl)cc2Cl)c(C)c1NC(=O)c1ccc(COc2cc(Cl)ccc2Cl)o1,"inconclusive: 20.8 µM [inhibitor, partial curve, poor fit]"
14,CC(C)(C)c1cc(C(=O)O)n(Cc2ccc(Cl)cc2Cl)n1,inactive
15,COc1ccc(NC(=O)CNC(=O)N2CC(=O)Nc3ccccc32)cc1OC,inactive
16,CC(C)(C)c1csc(N(CCC#N)CCC#N)n1,"inconclusive: 1.17 µM [inhibitor, partial curve, poor fit]"
17,CC(Sc1nnc(N)s1)C(=O)c1c(N)n(C)c(=O)n(C)c1=O (stereo unspecified),inactive
18,CCCCN(C)CCCNC(=O)c1cc(-c2cccs2)nc2ccccc12,inactive
19,COc1cc(/C=N/NC(=O)c2cccnc2)ccc1OCC(=O)Nc1ccccc1Cl,"inconclusive: 18.5 µM [inhibitor, single point]"
20,Cc1cccc(C)c1-n1c(C)cc(/C=N\NC(=O)CC(=O)NC2CCCCC2)c1C,"inconclusive: 18.5 µM [inhibitor, single point]"
21,COc1cc(CNCc2ccco2)cc(OC)c1O,inactive
22,COc1ccc(Nc2nc(N)nc(CN3CCC(Cc4ccccc4)CC3)n2)cc1,inactive
23,O=C(CCl)N(C1CCCC1)C1CCS(=O)(=O)C1 (stereo unspecified),"inconclusive: 16.5 µM [inhibitor, single point]"
24,COc1ccc2c(c1)cc1c(=O)n(CC(=O)NC(C)CCc3ccccc3)nc(C)n12 (stereo unspecified),inactive

# From PubChem BioAssay AID504834 (National Center for Advancing Translational Sciences (NCATS), 2011)
